Data as given in PubChem BioAssay AID2685 (National Center for Advancing Translational Sciences (NCATS), 2010).
The list shows a part of the results. These are further read-outs of the screen, such as a control signal, another cell line or another target. No call is given for them. The list favours compounds with an active or inconclusive main result. The note in brackets gives the kind of curve behind each potency; many fits are weak.

Assay: qHTS Assay for Lipid Storage Modulators in Drosophila S3 Cells;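 for cell number change: cells counted by Cell Tracker Red CMTPX staining in the red channel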
Settings: BODIPY lipid droplet fluorescence, 18-24 h; for cell number change: measured here: cell count max response, cells fed with added oleic acid
Outline: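 Laser-scanning cytometry quantifies lipid droplet accumulation (500–530 nm total intensity; droplet/cell object ratio) in oleic acid-fed (400 uM added) Drosophila S3 cells treated with a concentration series. 20 uM Triacsin C defined 100% inhibition.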

[1] = measured here: lipid fluorescence (Fed channel) AC50, cells fed with added oleic acid
[2] = measured here: cell number channel AC50, cells fed with added oleic acid

| Compound | cell number change [%] | AC50 [1] | AC50 [2] |
| --- | --- | --- | --- |
| Cc1c(Cl)cccc1NC(=O)CNC(=O)Cc1c[nH]c2ccccc12 | 6.84 | 2.06 µM [rising, full curve] | – |
| Fc1ccc(-c2nc3ccccc3c3nc4ccccc4n23)cc1 | -2.9 | 23.1 µM [rising, single point] | – |
| CN(C)/C(CN1CCCCC1)=C1\N=C(c2ccccc2)OC1=O | 12.1 | 29.1 µM [rising, single point] | – |
| Cc1c(O)ccc2c(CN3CCOCC3)cc(=O)oc12 | 25.4 | 18.4 µM [falling, single point] | – |
| Cn1c(SCC(=O)N2CCCc3ccccc32)nnc1-c1ccco1 | -14 | 1.64 µM [falling, full curve, poor fit] | – |
| COCCNc1ncnc2c1nc1n2CCCC1 | 22.5 | 29.1 µM [rising, single point] | – |
| COc1cc(-c2nnc(SCC(=O)OC3CCCCC3)o2)cc(OC)c1OC | 1.29 | – | – |
| O=S(=O)(c1cccs1)N1CCN(c2ccc(F)cc2)CC1 | -15.1 | 6.51 µM [falling, partial curve, poor fit] | – |
| C/C=C/c1ccc(OCCCNC)c(OC)c1 | -15.5 | – | – |
| CC(NC(=O)CCNC(=O)c1ccc(Br)cc1)c1ccc(S(N)(=O)=O)cc1 (configuration not stated) | 3.5 | – | – |
| CC(c1ccon1)N(C)Cc1cn(C)nc1-c1ccc2c(c1)OCCO2 (configuration not stated) | -4.13 | 0.651 µM [falling, single point] | – |
| CNC(=O)c1c(NC(=O)CCS(=O)(=O)c2ccccc2)sc2c1CCN(C(=O)OC)C2 | – | – | 0.731 µM [rising, full curve, poor fit] |
| CC(=O)c1ccc(S(=O)(=O)N2CCN(C(=O)c3ccc(-n4cncn4)c([N+](=O)[O-])c3)CC2)cc1 | -34.6 | 0.00411 µM [falling, full curve, poor fit] | – |
| COc1ccc(NC(=O)COC(=O)C2CC(=O)N(CCc3ccc(OC)c(OC)c3)C2)cc1Cl (configuration not stated) | 4.15 | 0.00461 µM [rising, full curve, poor fit] | – |
| CCOC(=O)c1cc(-c2ccccc2)sc1NC(=O)C(C)OC(=O)c1cccnc1Cl (configuration not stated) | 17.7 | – | 0.082 µM [rising, full curve, poor fit] |
| O=C(Nc1ccc(N2CCN(C(=O)c3ccccc3)CC2)cc1)c1ccc2c(c1)OCCO2 | -35.8 | – | 9.2 µM [falling, partial curve, poor fit] |
| O=C(O)CCN(Cc1ccccc1)S(=O)(=O)c1c(Cl)cccc1Cl | 22 | 0.00461 µM [rising, full curve, poor fit] | – |
| O=C(O)c1cc(-c2ccccc2)n(-c2ccc(Cl)cc2)n1 | -46.7 | 29.1 µM [falling, single point] | 29.1 µM [falling, single point] |
| CCOCCCn1c(SCC(=O)Nc2cccc(OC)c2)nc2ccccc2c1=O | -14.2 | 29.1 µM [falling, single point] | – |
| O=[N+]([O-])c1ccc(Oc2ccc(S(=O)(=O)N3CCOCC3)cc2)cc1 | -16.2 | 29.1 µM [falling, partial curve, poor fit] | – |

3 compounds from above, sorted by count of non-hydrogen atoms, descending.

| Compound | cell number change [%] | AC50 [1] | AC50 [2] |
| --- | --- | --- | --- |
| CCOCCCn1c(SCC(=O)Nc2cccc(OC)c2)nc2ccccc2c1=O | -14.2 | 29.1 µM [falling, single point] | – |
| COc1cc(-c2nnc(SCC(=O)OC3CCCCC3)o2)cc(OC)c1OC | 1.29 | – | – |
| O=C(O)c1cc(-c2ccccc2)n(-c2ccc(Cl)cc2)n1 | -46.7 | 29.1 µM [falling, single point] | 29.1 µM [falling, single point] |

(cont.)

| Compound | cell number change [%] | AC50 [1] | AC50 [2] |
| --- | --- | --- | --- |
| CCN(CC)C(=O)c1ccc(COc2ccc(Cl)c(C)c2)o1 | -18.2 | 29.1 µM [falling, single point] | – |
| O=C(CN1CCN(CC(=O)Nc2ccccn2)CC1)Nc1ccccn1 | – | 32.6 µM [falling, partial curve] | – |
| COC(=O)Nc1ccc(S(=O)(=O)N2CCCc3ccccc32)cc1 | – | – | 6.51 µM [rising, single point] |
| CC(=O)c1cn(CC(=O)Nc2ccccc2C(F)(F)F)c2ccccc12 | -8.5 | 3.66 µM [rising, full curve] | – |
| Cc1c(N2C(=O)c3ccc(Br)cc3C2=O)c(=O)n(-c2ccccc2)n1C | – | 0.184 µM [rising, full curve, poor fit] | – |
| Cc1ccc(/C=C/C(=O)O)cc1S(=O)(=O)NC1CCS(=O)(=O)C1 (configuration not stated) | 30.7 | – | – |
| Cc1nnc(SCC2=C(C(=O)O)N3C(=O)C(NC(=O)Cn4nc(C(F)F)c(Cl)c4C)C3SC2)s1 (configuration not stated) | -1.25 | 0.0731 µM [falling, full curve, poor fit] | – |
| CCn1nccc1C(=O)Nc1ccc(C(=O)OC(C)C)cc1 | 2.19 | 18.4 µM [rising, single point] | – |
| O=C(Nc1cccc(S(=O)(=O)Nc2ccccc2Cl)c1)c1ccc(Cl)nc1 | 1.71 | 2.06 µM [rising, partial curve] | – |
| Cc1nc(NC(C)c2ccccc2)sc1C(=O)Nc1ccccc1 (configuration not stated) | -17.4 | 0.00517 µM [falling, full curve, poor fit] | – |
| COc1ccc(-c2cc(=O)oc3c(C)c(OCc4nn[nH]n4)ccc23)cc1 | 10.5 | 3.26 µM [falling, partial curve, poor fit] | – |
| Cc1cc(N)ccc1-n1c(C)ccc1C | 30.9 | 0.116 µM [rising, single point] | 4.11 µM [rising, full curve] |
| COc1cccc(C2=NOC(C(=O)Nc3cccnc3)C2)c1 (configuration not stated) | -13.5 | – | – |
| COCCCNC(=O)CCn1c(=O)c2ccccc2n(CC(=O)Nc2c(C)cccc2C)c1=O | 2.81 | 2.59 µM [rising, partial curve] | – |
| O=C(NCCCN1CCOCC1)c1sc2cc(F)ccc2c1Cl | 23.2 | – | – |
| CO/N=C\c1cc(C(=O)c2ccc(Cl)cc2Cl)cn1C | 24.9 | 20.6 µM [rising, single point] | – |
| CCN=c1sc(C(=O)OC)cc(=O)n1CC | – | 6.51 µM [falling, partial curve, poor fit] | – |
| COc1cc(-n2c(=O)c3ccccc3n(CC(=O)OCc3ccccc3)c2=O)cc(OC)c1OC | -3.94 | 5.8 µM [rising, single point] | – |
| O=C(COC(=O)c1cccnc1Cl)NCCCc1ccccc1 | -34.7 | 20.6 µM [falling, single point] | 20.6 µM [falling, single point] |
| COc1ccc(CN(C(=S)Nc2ccccc2)C2CC(=O)N(c3ccc(F)cc3)C2=O)cc1 (configuration not stated) | -10.1 | – | 0.0326 µM [falling, full curve, poor fit] |
